Results published in PubChem BioAssay AID493014 (National Center for Advancing Translational Sciences (NCATS), 2011).
Hit rate of the full screen: of about 340,000 compounds, about 170 (0.05%) were called active. The inconclusive results got no clear call from the source; some entries with a clear call stand among them for comparison. The call rests on the fitted dose curve; in most records, active means well fitted inhibition curve with a large enough effect in the signal ratio, with a control signal flat (not every such curve was filed as active); inconclusive means small, poorly fitted or top-dose-only effect, or effect the other way, or a change in a side signal; inactive means flat fitted curve, though single readings scatter; the % refers to the signal ratio. Potencies of inconclusive entries are doubtful fits and often do not repeat.

Experiment: qHTS Assay to Find Inhibitors of Chronic Active B-Cell Receptor Signaling;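 on activity change, negative = inhibition: plate controls were basal doxycycline-induced cells for no effect and cells given 10 µM MG132 for full effect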
Settings: ABC-DLBCL IkBa-CBG/CBR reporter, luminescence ratio (green luciferase fused to IkBa over red control in TMD8 lymphoma cells), 4 h; activity change, negative = inhibition: at 46.1 µM (top of the series) unless noted
How it was run: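 TMD8 ABC-DLBCL cells carrying doxycycline-inducible green luciferase fused to IkappaBalpha plus unfused red luciferase were exposed to compounds (up to 46 uM) for 4 hrs at 37C. Activity came from the overlap-corrected green/red luminescence ratio.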
Potency means the concentration at half of the fitted maximal effect.

Row | SMILES | activity change, negative = inhibition | Potency
1 | Cc1ccc(-c2nc3ccc([N+](=O)[O-])cc3[nH]2)cc1 | inconclusive: -1.15% | 
2 | O=[N+]([O-])c1ccc(S(=O)(=O)N2CCC3(CC2)OCCN3S(=O)(=O)c2cccs2)cc1 | inactive | 
3 | O=[N+]([O-])c1cc([N+](=O)[O-])c2oc(-c3ccccc3)c(Br)c2c1O | inconclusive: 8.01% | 
4 | COc1ccc(/C(N)=C/C(=O)C(C)(C)C)cc1 | inconclusive: 1.34% | 
5 | COc1ccc(S(=O)(=O)N2Cc3ccccc3CC2C(=O)Nc2nccs2)cc1 (stereo unspecified) | inconclusive: 0.753% | 
6 | COc1cccc(C(=O)N2N=C(c3ccccn3)CC2(O)C(F)(F)F)c1 (stereo unspecified) |  | inconclusive: 12.6 µM [falling, partial curve]
7 | Cc1ccc(CN=c2c([N+](=O)[O-])nn(-c3cccc(C)c3)n2O)cc1 | inconclusive: 13% | 
8 | O=C(N/N=C/c1cc(Cl)ccc1O)C(=O)Nc1ccccc1OC(F)(F)C(F)F |  | inconclusive: 5.8 µM [cytotoxic, full curve]
9 | CSCCC(NC(=O)c1ccccc1)C(=O)NCCCn1nc(C)cc1C (stereo unspecified) | inconclusive: -0.164% | 
10 | COc1ccc(CCNc2cc(C)nc3c(-c4ccccc4)c(C)nn23)cc1OC | inconclusive: -3.28% | 
11 | COc1ccc(C(=O)C2CCCN(Cc3c(C)[nH]c4ccccc34)C2)c(OC)c1 (stereo unspecified) | inconclusive: -14.8% | 
12 | O=C(O)c1cccc(NC(=S)NC(=O)c2cccc(OCc3ccccc3)c2)c1 |  | inconclusive: 35.5 µM [falling, single point]
13 | CCOC(=O)N1CCN(c2nc(-c3ccco3)cc(C(F)(F)F)n2)CC1 | inactive | 
14 | CCOC(=O)COc1ccc(S(=O)(=O)c2ccc(OCC(=O)OCC)cc2)cc1 | inconclusive: -1.29% | 
15 | Clc1ccccc1CNc1ncnc2nc[nH]c12 |  | inconclusive: 20.6 µM [falling, partial curve]
16 | CCc1nnc(NC(=O)CCC(=O)N2CCN(Cc3cc(Cl)ccc3OC)CC2)s1 | inconclusive: 3.59% | 
17 | Cc1ccc2cc(CN(C)S(C)(=O)=O)c(=O)[nH]c2c1 | inconclusive: 3.92% | 
18 | COc1cccc(CN2CCN(C(=O)c3cccc4ccccc34)CC2)c1 |  | inconclusive: 1.78 µM [falling, partial curve, poor fit]
19 | CC(=O)Nc1ccc(NC(=O)c2ccc(S(=O)(=O)N(C)c3ccccc3)cc2)cc1 | inconclusive: 5.45% | 
20 | S=c1[nH]nc(COc2ccc(Cl)cc2)o1 |  | inconclusive: 22.4 µM [falling, single point]
21 | CCCc1cc(=O)oc2c(C)c(OCC(=O)NCCCn3ccnc3)ccc12 | inconclusive: 8.51% | 
22 | CCOC(=O)C1CCN(S(=O)(=O)c2ccc(C)c(C(=O)NC3CCCCC3)c2)CC1 | inactive | 
23 | Cc1[nH]n(-c2ccc([N+](=O)[O-])cc2)c(=O)c1C=NCCc1ccc(S(N)(=O)=O)cc1 | inconclusive: -11.6% | 
24 | COc1cc(OC)c(C2=NOC(C(=O)NCc3cccs3)C2)cc1Cl (stereo unspecified) |  | inconclusive: 12.6 µM [falling, partial curve, poor fit]
25 | COc1ccccc1/C=C1\SC(=S)N(CCC(=O)NNC(=O)c2ccccc2OC)C1=O |  | inconclusive: 1.12 µM [falling, partial curve, poor fit]
26 | Cc1ccc(NC(=O)[C@H](C)NC(=O)C2CCN(C(=O)[C@@H](N)CC(C)C)CC2)cc1 | inconclusive: 1.48% | 

Row | SMILES | activity change, negative = inhibition | Potency
27 | CCN1/C(=C2/SC(=S)N(NC(C)=O)C2=O)Sc2ccc(OC)cc21 | inactive | 
28 | O=C(CCCn1c(SCC(=O)Nc2ccccc2Cl)nc2ccccc2c1=O)NCC1CCCO1 (stereo unspecified) | inconclusive: -2.39% | 
29 | O=C(O)c1cccc(-c2nnn(Cc3ccccc3Cl)n2)c1 | inconclusive: 15.1% | 
30 | COc1ccc(C2CC(c3ccc(C)o3)=NN2C(C)=O)cc1 (stereo unspecified) | inactive | 
31 | CCOc1cc(C=O)cc(Cl)c1OCC(N)=O |  | inconclusive: 20 µM [falling, partial curve]
32 | C[C@@]12C(=O)Nc3cc(Cl)ccc3C(=O)N1[C@H]1c3cc(Cl)ccc3OC[C@@H]1[C@@H]2c1ccccc1 | inconclusive: 5.85% | 
33 | CC(C)OC(=O)c1cc2c(ccn2C)n1CC(=O)N(Cc1ccccc1)c1ccccc1 | inactive | 
34 | c1ccc(-c2cn(-c3ccccc3)c3ncnc(N4CCN(c5ccccc5)CC4)c23)cc1 | inactive | 
35 | CCOC(=O)c1c(C)[nH]c(C2=NNC(=Nc3ccc(OCC)cc3)SC2)c1C | inactive | 
36 | COc1cc(NC(=S)NC(=O)c2cccs2)ccc1NC(=O)C(C)C |  | inconclusive: 5.01 µM [falling, full curve, poor fit]
37 | Cc1ccc(-n2nc(-c3ccc(N)cc3)cc2N)cc1 | inactive | 
38 | Cc1cccc(C)c1NC(=O)c1nc(S(=O)(=O)Cc2ccccc2)ncc1Cl | inconclusive: 26.9% | 
39 | O=C(NC1CCCC1)C(c1ccsc1)N(Cc1ccco1)C(=O)Cc1cccs1 (stereo unspecified) | inconclusive: -5.75% | 
40 | O=C(CN1C(=O)COc2ccc(Cl)cc21)Nc1nccs1 | inconclusive: 3.09% | 
41 | CCc1ccc(/C=C(\Cl)c2nc3cc(Cl)ccc3c(=O)[nH]2)cc1 |  | inconclusive: 18.4 µM [falling, partial curve, poor fit]
42 | CC1(OC(=O)CCc2ccccc2)C(=O)C=C2C=C(c3ccc(C#N)cc3)N(C3CCCCC3)C=C2C1=O (stereo unspecified) | inconclusive: 6.94% | 
43 | O=C1OC(c2ccc(Cl)cc2)=N/C1=C\C=C\c1ccco1 |  | inconclusive: 35.5 µM [falling, single point]
44 | CCOc1ccccc1NC(=O)Nc1cc(S(=O)(=O)N(C)C)ccc1C | inconclusive: 7.38% | 
45 | O=C(CCCN1C(=O)/C(=C\c2ccccc2)SC1=S)Nc1ccc(O)cc1C(=O)O |  | inconclusive: 11.2 µM [falling, partial curve]
46 | CCc1c(C(=O)N2CCCN(C)CC2)csc1C | inactive | 
47 | CCN(CC)CCCN(Cc1cc2cc(OC)c(OC)cc2[nH]c1=O)C(=O)Nc1ccccc1 | inconclusive: 8.95% | 
48 | C[C@@H](C(=O)Nc1ccc2ccccc2c1)[C@@H]1C[C@@]1(C)[C@@H](NC(=O)OCc1ccccc1)c1ccccc1 | inactive | 
49 | Cc1oncc1C(=O)NC(C)C | inconclusive: 10.4% | 
50 | Cc1nnsc1S(=O)c1ccc(Cl)c(Cl)c1 (stereo unspecified) | inactive | 
51 | CCOc1ccc(C(c2c(C)[nH][nH]c2=O)c2c(C)[nH][nH]c2=O)cc1OCC |  | inconclusive: 29.1 µM [falling, partial curve, poor fit]
52 | Cn1ncc(Br)c1NC(=O)Nc1ccc(OC(F)(F)F)cc1 | inconclusive: 0.337% | 

Row | SMILES | activity change, negative = inhibition | Potency
53 | CCOc1ccccc1NC(=O)CSc1nnc(NC(=O)c2ccco2)s1 | inconclusive: 0.26% | 
54 | O=c1cc(CSc2ccccn2)c2ccccc2[nH]1 |  | inconclusive: 18.4 µM [falling, partial curve]
55 | CC(C)[C@H]1C(=O)Nc2ccccc2N1C(=O)N[C@@H](Cc1ccccc1)C(=O)N[C@@H](Cc1ccccc1)C(=O)O | inactive | 
56 | Cc1ccccc1S(=O)(=O)Cc1ccc(C(=O)NC2CCCCCC2)o1 | inconclusive: -6.53% | 
57 | CC(C)(C)c1nc(NC(=O)Nc2ccccc2)sc1Br | inconclusive: 0.606% | 
58 | COc1ccc(OC)c(S(=O)(=O)Nc2c(NC3CCCCC3)c3ccccc3oc2=O)c1 |  | inconclusive: 12.6 µM [falling, partial curve]
59 | CCOC(=O)C1CCN(C(=O)CCCOc2ccccc2)CC1 |  | inconclusive: 29.1 µM [falling, single point]
60 | CCCCCCNC(=O)CCc1nc2cccnc2n1Cc1ccc(OC)cc1 | inconclusive: -2.82% | 
61 | CCc1nnc(NC(=O)CSc2nc3c(c(=O)n2CC)SC(C)C3)s1 (stereo unspecified) | inconclusive: -7.76% | 
62 | Cc1ccc2cc(CCNC(=O)c3cccc([N+](=O)[O-])c3)c(=O)[nH]c2c1 | inconclusive: -1.64% | 
63 | Cc1cccc(C(=O)NNC(=O)c2ccccc2C)c1 |  | inconclusive: 12.6 µM [falling, partial curve]
64 | Cc1sc2nc(CN(Cc3cccs3)C(=O)NC3CCCCC3)[nH]c(=O)c2c1C | inconclusive: 0.0809% | 
65 | O=C(CN1C(=O)NC(c2ccccc2)(c2ccccc2)C1=O)NCC(=O)Nc1ccc(F)cc1 | inconclusive: -0.317% | 
66 | CCc1ccc(NC(=O)CSc2nccn2C2CCCC2)cc1 | inactive | 
67 | Cc1ccc(S(=O)(=O)NCCC(=O)NC(C)c2ccccc2)cc1 (stereo unspecified) | inactive | 
68 | COc1ccc(CCNC(=O)c2coc3ccccc3c2=O)cc1OC |  | inconclusive: 35.5 µM [rising, single point]
69 | Cc1ccc(C)c(N2CCN(C(=O)CCCCCn3c(=S)[nH]c4ccc(N5CCOCC5)cc4c3=O)CC2)c1 |  | inconclusive: 17.8 µM [falling, partial curve, poor fit]
70 | COc1cc(-c2noc(CCCC(=O)Nc3ccc(C(N)=O)cc3)n2)cc(OC)c1OC |  | inconclusive: 20 µM [falling, single point]
71 | CCOC(=O)Cn1c(=O)n(CC(=O)OCC)c2ccccc21 | inconclusive: 7.68% | 
72 | O=C(NC1CCCCC1)C(c1ccncc1)N(Cc1ccc2c(c1)OCO2)C(=O)C(F)(F)F (stereo unspecified) |  | inconclusive: 29.1 µM [falling, single point]
73 | Fc1ccc2cc(-c3cccnc3)ncc2c1 | inconclusive: -0.399% | 
74 | CCCCCCn1nc(C(=O)Nc2nc3c(s2)CCCC3)c2ccccc2c1=O | inconclusive: 7.04% | 
75 | Cc1cc(S(=O)(=O)N2CCN(CC(=O)N(C)Cc3ccccc3)CC2)ccc1Br | inconclusive: 2.51% | 
76 | O=C(COC(=O)COc1cc(Cl)c(Cl)cc1Cl)NC1CC1 | inconclusive: 3.87% | 

Quoted from the listing:
For activity change, negative = inhibition, CCCc1cc(=O)oc2c(C)c(OCC(=O)NCCCn3ccnc3)ccc12 is listed with inconclusive: 8.51%
For activity change, negative = inhibition, O=[N+]([O-])c1cc([N+](=O)[O-])c2oc(-c3ccccc3)c(Br)c2c1O is listed with inconclusive: 8.01%
For activity change, negative = inhibition, Fc1ccc2cc(-c3cccnc3)ncc2c1 is listed with inconclusive: -0.399%
